The text below walks through data of paper PMC9129000, “RADA-dependent branch migration has a predominant role in plant mitochondria and its defect leads to mtDNA instability and cell cycle arrest”.

Data set [1] deals with T1, RADA (Arabidopsis thaliana) (UniProt F4K8X8).
T1 sequence (looked up): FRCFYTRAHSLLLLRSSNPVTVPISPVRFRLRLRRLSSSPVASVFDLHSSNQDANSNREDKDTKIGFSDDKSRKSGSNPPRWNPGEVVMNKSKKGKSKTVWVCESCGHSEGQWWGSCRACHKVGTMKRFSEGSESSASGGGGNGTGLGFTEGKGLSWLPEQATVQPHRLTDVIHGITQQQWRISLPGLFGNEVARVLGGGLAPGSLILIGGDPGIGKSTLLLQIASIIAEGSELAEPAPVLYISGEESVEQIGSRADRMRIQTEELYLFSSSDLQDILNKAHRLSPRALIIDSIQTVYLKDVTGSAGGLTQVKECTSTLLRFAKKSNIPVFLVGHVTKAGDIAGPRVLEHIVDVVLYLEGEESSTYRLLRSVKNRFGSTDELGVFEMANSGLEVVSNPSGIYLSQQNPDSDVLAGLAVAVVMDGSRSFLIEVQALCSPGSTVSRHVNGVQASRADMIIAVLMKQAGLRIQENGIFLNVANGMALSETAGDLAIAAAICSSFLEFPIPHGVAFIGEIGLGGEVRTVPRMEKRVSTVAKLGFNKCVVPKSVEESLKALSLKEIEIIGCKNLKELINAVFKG
Kind of data set: competition with a labelled probe. Particulars: less efficient competitor than homologous 30-mer; 20 mM Tris-HCl pH 7.5, 50 mM KCl, 5 mM MgCl2, 0.5 mM EDTA, 10% glycerol, 1 mM DTT, protease inhibitors; 20 C, 20 min; 8 or 4.5% PAGE in TBE at 4 C; recombinant protein; residues 49-627; protein details: N-terminal His (pET28a); single-stranded DNA.

Data set [2] has as its target T1, RADA (Arabidopsis thaliana). Kind of data set: EMSA. The following applies: 20 mM Tris-HCl pH 7.5, 50 mM KCl, 5 mM MgCl2, 0.5 mM EDTA, 10% glycerol, 1 mM DTT, protease inhibitors; 20 C, 20 min; 8 or 4.5% PAGE in TBE at 4 C; recombinant protein; residues 49-627; protein details: N-terminal His (pET28a); label: 5'-32P on sense strand. Background: In EMSA bound probe runs differently from free probe, usually more slowly.

A weaker result is weaker than the reference pair of the same experiment. Tags and fusion partners may be left off the protein sequences shown. For some assays here: Construct, isoform or probe ends are uncertain for at least one entry. For some assays here: At least one verdict rests on a figure or table, not on a statement of the authors.

Regarding “AAAAAAAAAAAAAAAAAAAAAAAAAAAAAA [poly-dA 30-mer]”, in data set [1], the binding result was “binds more weakly”.
Take “GACGCTGCCGAATTCTACCAGTGCCTTGCTAGGACATCTTTGCCCACCTGCAGGTTCACCC (double strand) [EMSA dsDNA]”: in data set [2], the binding result is given as “binds more weakly”.
Take “GACGCTGCCGAATTCTACCAGTGCCTTGCTAGGACATCTTTGCCCACCTGCAGGTTCACCC / ATCGATAGTCGGATCCTCTAGACAGCATGTCCTAGCAAGGCACTGGTAGAATTCGGCAGCGT [EMSA fork]”: the binding result in data set [2] is listed as “binds”.
Same read-out and setting: for “GACGCTGCCGAATTCTACCAGTGCCTTGCTAGGACATCTTTGCCCACCTGCAGGTTCACCC / GGGTGAACCTGCAGGTGGGCAAAGATGTCC [EMSA 5' overhang]” the value was “binds”; for “GACGCTGCCGAATTCTACCAGTGCCTTGCTAGGACATCTTTGCCCACCTGCAGGTTCACCC / TAGCAAGGCACTGGTAGAATTCGGCAGCGTC [EMSA 3' overhang]”, “binds”.
